Data published in the supplement of paper PMC11348887.
Structures can show the parent of a compound that is named as a salt. The list shows a part of the results. Small differences around the control level are noise.

system: hPSC-derived cortical neurons (WA09); test: nucleus area z-score vs screen plate; higher = larger nuclei (more mature); settings: 5 µM; treatment: days 7-14 after plating, readout day 21

SMILES | nucleus area z-score
CCN(CC)CC#CCOC(=O)C(O)(c1ccccc1)C1CCCCC1 (stereo not given) [Oxybutynin chloride] | -0.705
C=CC(=O)Nc1cccc(Nc2nc(Nc3ccc(Oc4ccnc(C(=O)NC)c4)cc3)ncc2F)c1 | 0.217
CC(C)n1c(/C=C/C(O)CC(O)CC(=O)O)c(-c2ccc(F)cc2)c2ccccc21 (stereo not given) [Fluvastatin Sodium] | -2.05
CN1C(=O)C(Cc2c[nH]c3ccccc23)NC1=S (stereo not given) [Necrostatin-1] | 0.0777
Nc1ccc(S(=O)(=O)Nc2ncccn2)cc1 [Sodium sulfadiazine] | 0.703
Nc1nc(=O)c2nc(CNc3ccc(C(=O)N[C@@H](CCC(=O)O)C(=O)O)cc3)cnc2[nH]1 [Folic acid] | -0.124
CO[C@H]1C[C@@H]2CC[C@@H](C)[C@@](O)(O2)C(=O)C(=O)N2CCCC[C@H]2C(=O)O[C@H]([C@H](C)C[C@@H]2CC[C@@H](OP(C)(C)=O)[C@H](OC)C2)CC(=O)[C@H](C)/C=C(\C)[C@@H](O)[C@@H](OC)C(=O)[C@H](C)C[C@H](C)/C=C/C=C/C=C/1C [Ridaforolimus (Deforolimus, MK-8669)] | -4.82
COc1ccccc1OCC(O)CN1CCN(CC(=O)Nc2c(C)cccc2C)CC1 (stereo not given) [Ranolazine] | 0.767
Oc1ccc(OC2CCCCO2)cc1 (stereo not given) [Deoxyarbutin] | -0.0951
NCCCCC(NC(=O)C1CCCN1C(=O)C1CSSCC(N)C(=O)NC(Cc2ccc(O)cc2)C(=O)NC(Cc2ccccc2)C(=O)NC(CCC(N)=O)C(=O)NC(CC(N)=O)C(=O)N1)C(=O)NCC(N)=O (stereo not given) [Lypressin Acetate] | 1.08
C=CC(=O)Nc1cc(Nc2nccc(-c3c[nH]c4ccccc34)n2)c(OC)cc1N(C)CCN(C)C | -11.2
C[C@]12CCC3=C4CCC(=O)C=C4CC[C@H]3[C@@H]1CC[C@@]2(O)CC#N [Dienogest] | 2.32
Cc1nnc(SCC2=C(C(=O)O)N3C(=O)[C@@H](NC(=O)Cn4cnnn4)[C@H]3SC2)s1 [Cefazolin Sodium] | 0.433
COc1ccc([C@@H]2Sc3ccccc3N(CCN(C)C)C(=O)[C@@H]2OC(C)=O)cc1 [Diltiazem HCl] | 0.486
NS(=O)(=O)c1cc2c(cc1Cl)NCNS2(=O)=O [Hydrochlorothiazide] | 0.0622
CCN(CC)CCN(Cc1ccc(-c2ccc(C(F)(F)F)cc2)cc1)C(=O)Cn1c(SCc2ccc(F)cc2)nc(=O)c2c1CCC2 | -13.2
CCN1/C(=C/C(C)=O)Sc2ccc(OC)cc21 | -0.195
CC(C)(C)c1cnc(CSc2cnc(NC(=O)C3CCNCC3)s2)o1 | -10.9
CS(=O)(=O)CCNCc1ccc(-c2ccc3ncnc(Nc4ccc(OCc5cccc(F)c5)c(Cl)c4)c3c2)o1 [Lapatinib] | -3.77
NCC[C@H](O)C(=O)N[C@@H]1C[C@H](N)[C@@H](O[C@H]2O[C@H](CN)[C@@H](O)[C@H](O)[C@H]2O)[C@H](O)[C@H]1O[C@H]1O[C@H](CO)[C@@H](O)[C@H](N)[C@H]1O [Amikacin hydrate] | -1.22

A section from the list above, for reference:
SMILES | nucleus area z-score
CC(C)n1c(/C=C/C(O)CC(O)CC(=O)O)c(-c2ccc(F)cc2)c2ccccc21 (stereo not given) [Fluvastatin Sodium] | -2.05
CN1C(=O)C(Cc2c[nH]c3ccccc23)NC1=S (stereo not given) [Necrostatin-1] | 0.0777

The listing continues.

SMILES | nucleus area z-score
O=C(NCCO)c1cccc(-c2cc(Nc3ccc(OC(F)(F)F)cc3)ncn2)c1 | 0.2
C#Cc1cccc(Nc2ncnc3cc(OC)c(OCCCCCCC(=O)NO)cc23)c1 | -8.53
O=C1Cc2cc(CCN3CCN(c4nsc5ccccc45)CC3)c(Cl)cc2N1 [Ziprasidone HCl] | -1.09
COC(=O)N1CCN(Cc2cccc(NC(=O)Nc3ccc(C)nc3)c2F)CC1 | 1.54
CN1CCN(c2ccc3nc(-c4c(N)c5c(F)cccc5[nH]c4=O)[nH]c3c2)CC1 [Dovitinib (TKI-258) Dilactic Acid] | -7.39
CC[C@@]1(O)C(=O)OCc2c1cc1n(c2=O)Cc2cc3cc(O)ccc3nc2-1 [(S)-10-Hydroxycamptothecin] | -1.03
CN(C)CCc1c[nH]c2ccc(C[C@H]3COC(=O)N3)cc12 [Zolmitriptan] | -0.428
NC1=N[C@@](c2cccc(-c3cncnc3)c2)(c2ccnc(C(F)F)c2)c2cccc(F)c21 | -0.562
CN(C)CCN(Cc1ccccc1)c1ccccn1 [Tripelennamine HCl] | -0.31
O=C(NC[C@H](O)CN1CCc2ccccc2C1)c1ccnc(NC2CCC2)c1 | -0.567
CC(C)(F)C[C@H](N[C@@H](c1ccc(-c2ccc(S(C)(=O)=O)cc2)cc1)C(F)(F)F)C(=O)NC1(C#N)CC1 [Odanacatib (MK-0822)] | 0.288
CO[C@H]1CC[C@H](N2C(=O)CNc3ncc(-c4ccc(C(C)(C)O)nc4)nc32)CC1 | -6.78
CCN(CC)CCOCCOC(=O)C1(c2ccccc2)CCCC1 [Pentoxyverine Citrate] | -0.766
CCCCOc1ccc(CC(=O)NO)cc1 [Bufexamac] | -0.318
CCCc1nc(C(C)(C)O)c(C(=O)OCc2oc(=O)oc2C)n1Cc1ccc(-c2ccccc2-c2nnn[nH]2)cc1 [Olmesartan Medoxomil] | -0.0115
CC1(O)CCC(C(C)(C)O)CC1 (stereo not given) [Terpin hydrate] | -0.0854
COc1cc2ncnc(Nc3ccc(Cl)cc3F)c2cc1OC | 0.168
FC(F)(F)c1ccc(CNc2ccc(Cc3c[nH]c4ncc(Cl)cc34)cn2)cn1 [Pexidartinib (PLX3397)] | 0.486
Clc1ccc(C(c2c[nH]c3ccccc23)c2c[nH]c3ccccc23)cc1 | -4.53
O=C(NCc1ccc(Oc2ccccc2)cc1)c1nc(-c2cc(Br)c(O)c(Br)c2)no1 | 0.372
